Experimental data taken from the supplement of paper PMC12067093, “Discovery and optimisation of a covalent ligand for TRIM25 and its application to targeted protein ubiquitination” (Chemical Science, 2025).
The other results are listed elsewhere or left out.

Protein sequences, listed by entry. Tags and fused reporters are not part of them. Lines headed by an entry give the natural chain unless they say otherwise; changes in a name come on top.
UniProt Q9Y6K5: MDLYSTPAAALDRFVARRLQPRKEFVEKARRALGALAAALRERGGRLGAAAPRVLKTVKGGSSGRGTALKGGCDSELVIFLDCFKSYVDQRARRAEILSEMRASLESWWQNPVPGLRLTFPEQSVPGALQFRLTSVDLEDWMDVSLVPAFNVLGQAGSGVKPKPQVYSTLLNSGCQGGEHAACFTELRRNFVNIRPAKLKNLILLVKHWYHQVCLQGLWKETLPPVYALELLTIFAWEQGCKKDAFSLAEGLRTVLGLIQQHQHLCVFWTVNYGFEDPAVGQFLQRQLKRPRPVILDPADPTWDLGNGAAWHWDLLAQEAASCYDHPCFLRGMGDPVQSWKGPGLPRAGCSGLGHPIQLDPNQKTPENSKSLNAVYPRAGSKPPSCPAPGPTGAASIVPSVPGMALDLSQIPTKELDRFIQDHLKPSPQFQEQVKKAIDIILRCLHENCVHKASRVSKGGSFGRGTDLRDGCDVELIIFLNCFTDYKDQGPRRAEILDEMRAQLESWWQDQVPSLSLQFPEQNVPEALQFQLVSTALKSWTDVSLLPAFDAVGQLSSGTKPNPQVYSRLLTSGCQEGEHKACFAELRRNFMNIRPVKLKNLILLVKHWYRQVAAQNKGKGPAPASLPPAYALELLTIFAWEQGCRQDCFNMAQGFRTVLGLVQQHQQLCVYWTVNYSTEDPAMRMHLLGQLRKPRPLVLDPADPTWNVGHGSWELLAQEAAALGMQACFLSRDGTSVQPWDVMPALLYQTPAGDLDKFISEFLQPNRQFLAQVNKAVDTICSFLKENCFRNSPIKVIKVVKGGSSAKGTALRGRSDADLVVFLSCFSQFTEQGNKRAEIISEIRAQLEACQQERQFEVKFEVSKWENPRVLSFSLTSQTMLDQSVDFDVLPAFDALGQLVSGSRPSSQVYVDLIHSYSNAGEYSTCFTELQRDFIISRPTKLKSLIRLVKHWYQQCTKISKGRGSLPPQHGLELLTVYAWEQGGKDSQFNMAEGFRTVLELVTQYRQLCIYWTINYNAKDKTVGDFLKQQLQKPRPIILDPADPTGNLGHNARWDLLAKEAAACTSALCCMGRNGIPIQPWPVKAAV
UniProt Q8NFH3: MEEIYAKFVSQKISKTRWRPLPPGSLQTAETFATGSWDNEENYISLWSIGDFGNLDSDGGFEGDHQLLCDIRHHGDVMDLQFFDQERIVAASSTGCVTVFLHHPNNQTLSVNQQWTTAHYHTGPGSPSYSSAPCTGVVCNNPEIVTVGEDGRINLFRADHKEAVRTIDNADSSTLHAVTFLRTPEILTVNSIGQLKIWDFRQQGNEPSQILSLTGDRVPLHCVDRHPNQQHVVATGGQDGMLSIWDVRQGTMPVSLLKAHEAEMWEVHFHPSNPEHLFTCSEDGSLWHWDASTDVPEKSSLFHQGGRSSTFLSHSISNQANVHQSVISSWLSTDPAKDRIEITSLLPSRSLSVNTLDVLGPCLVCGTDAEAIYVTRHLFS
UniProt O95848: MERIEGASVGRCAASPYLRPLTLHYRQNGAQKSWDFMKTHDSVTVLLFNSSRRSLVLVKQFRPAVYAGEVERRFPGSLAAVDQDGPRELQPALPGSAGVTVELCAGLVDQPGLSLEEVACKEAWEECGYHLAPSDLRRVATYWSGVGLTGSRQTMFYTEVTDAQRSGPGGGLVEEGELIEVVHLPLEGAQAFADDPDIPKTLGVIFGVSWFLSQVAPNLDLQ
UniProt Q9BW27: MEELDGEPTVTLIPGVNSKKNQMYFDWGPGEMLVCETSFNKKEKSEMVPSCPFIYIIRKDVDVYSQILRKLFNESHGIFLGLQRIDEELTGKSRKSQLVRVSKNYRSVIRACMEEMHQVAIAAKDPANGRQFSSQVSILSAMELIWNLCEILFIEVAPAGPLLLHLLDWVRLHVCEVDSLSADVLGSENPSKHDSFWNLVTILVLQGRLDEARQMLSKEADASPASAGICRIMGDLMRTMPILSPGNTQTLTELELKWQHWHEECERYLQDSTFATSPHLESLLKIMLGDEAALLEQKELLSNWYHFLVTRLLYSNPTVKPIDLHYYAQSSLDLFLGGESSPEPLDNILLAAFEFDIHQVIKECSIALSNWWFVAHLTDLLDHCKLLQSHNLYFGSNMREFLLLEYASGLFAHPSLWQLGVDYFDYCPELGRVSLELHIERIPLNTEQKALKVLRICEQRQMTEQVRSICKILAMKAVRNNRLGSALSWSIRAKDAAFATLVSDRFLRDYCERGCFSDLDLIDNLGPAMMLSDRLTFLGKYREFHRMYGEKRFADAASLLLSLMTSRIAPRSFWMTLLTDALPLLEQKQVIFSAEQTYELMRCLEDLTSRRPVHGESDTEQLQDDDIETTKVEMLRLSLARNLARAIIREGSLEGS
UniProt Q9Y5Y2: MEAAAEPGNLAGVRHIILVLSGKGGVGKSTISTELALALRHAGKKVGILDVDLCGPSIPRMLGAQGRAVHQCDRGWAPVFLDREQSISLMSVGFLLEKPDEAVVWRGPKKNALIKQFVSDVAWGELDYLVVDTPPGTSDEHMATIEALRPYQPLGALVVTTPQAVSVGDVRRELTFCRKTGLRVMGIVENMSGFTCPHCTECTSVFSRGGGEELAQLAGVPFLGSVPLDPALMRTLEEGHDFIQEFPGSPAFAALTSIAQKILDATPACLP
UniProt Q6ZVK8: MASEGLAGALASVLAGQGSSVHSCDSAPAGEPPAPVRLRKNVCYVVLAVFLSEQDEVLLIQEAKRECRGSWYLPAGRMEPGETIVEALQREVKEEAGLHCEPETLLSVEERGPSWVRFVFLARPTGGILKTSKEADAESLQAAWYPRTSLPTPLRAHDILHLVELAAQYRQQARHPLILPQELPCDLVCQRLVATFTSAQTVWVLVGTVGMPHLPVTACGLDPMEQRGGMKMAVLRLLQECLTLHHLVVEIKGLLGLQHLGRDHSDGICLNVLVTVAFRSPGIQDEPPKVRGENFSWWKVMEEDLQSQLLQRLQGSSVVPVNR
UniProt Q8WUM0: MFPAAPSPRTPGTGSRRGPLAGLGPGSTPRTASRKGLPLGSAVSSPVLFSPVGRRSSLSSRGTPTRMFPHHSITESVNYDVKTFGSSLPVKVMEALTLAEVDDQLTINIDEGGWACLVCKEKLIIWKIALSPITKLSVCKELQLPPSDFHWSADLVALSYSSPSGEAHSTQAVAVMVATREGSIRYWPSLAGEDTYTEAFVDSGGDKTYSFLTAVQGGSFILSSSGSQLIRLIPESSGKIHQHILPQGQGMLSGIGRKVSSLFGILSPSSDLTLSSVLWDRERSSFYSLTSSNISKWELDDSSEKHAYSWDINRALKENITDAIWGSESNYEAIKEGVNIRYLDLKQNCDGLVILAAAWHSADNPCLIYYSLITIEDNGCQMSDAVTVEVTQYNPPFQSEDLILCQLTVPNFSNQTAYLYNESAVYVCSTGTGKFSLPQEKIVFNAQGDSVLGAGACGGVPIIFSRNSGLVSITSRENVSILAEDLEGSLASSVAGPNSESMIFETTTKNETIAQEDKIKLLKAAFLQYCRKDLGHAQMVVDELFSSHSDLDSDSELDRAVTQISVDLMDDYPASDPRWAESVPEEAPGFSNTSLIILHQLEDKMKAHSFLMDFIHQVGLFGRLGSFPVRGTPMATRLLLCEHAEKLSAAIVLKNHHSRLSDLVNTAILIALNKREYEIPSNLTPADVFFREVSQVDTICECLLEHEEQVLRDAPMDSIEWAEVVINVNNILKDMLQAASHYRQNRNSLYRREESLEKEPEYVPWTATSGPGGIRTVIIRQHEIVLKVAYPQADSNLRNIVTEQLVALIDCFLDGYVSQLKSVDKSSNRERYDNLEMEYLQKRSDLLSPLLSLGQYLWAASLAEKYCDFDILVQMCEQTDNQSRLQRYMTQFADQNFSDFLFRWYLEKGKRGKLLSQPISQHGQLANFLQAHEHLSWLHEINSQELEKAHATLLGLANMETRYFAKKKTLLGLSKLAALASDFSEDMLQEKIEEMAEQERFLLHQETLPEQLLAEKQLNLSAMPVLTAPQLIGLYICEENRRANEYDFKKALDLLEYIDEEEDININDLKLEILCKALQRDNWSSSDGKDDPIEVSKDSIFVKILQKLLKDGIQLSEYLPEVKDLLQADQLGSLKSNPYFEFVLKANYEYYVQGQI
UniProt O75694: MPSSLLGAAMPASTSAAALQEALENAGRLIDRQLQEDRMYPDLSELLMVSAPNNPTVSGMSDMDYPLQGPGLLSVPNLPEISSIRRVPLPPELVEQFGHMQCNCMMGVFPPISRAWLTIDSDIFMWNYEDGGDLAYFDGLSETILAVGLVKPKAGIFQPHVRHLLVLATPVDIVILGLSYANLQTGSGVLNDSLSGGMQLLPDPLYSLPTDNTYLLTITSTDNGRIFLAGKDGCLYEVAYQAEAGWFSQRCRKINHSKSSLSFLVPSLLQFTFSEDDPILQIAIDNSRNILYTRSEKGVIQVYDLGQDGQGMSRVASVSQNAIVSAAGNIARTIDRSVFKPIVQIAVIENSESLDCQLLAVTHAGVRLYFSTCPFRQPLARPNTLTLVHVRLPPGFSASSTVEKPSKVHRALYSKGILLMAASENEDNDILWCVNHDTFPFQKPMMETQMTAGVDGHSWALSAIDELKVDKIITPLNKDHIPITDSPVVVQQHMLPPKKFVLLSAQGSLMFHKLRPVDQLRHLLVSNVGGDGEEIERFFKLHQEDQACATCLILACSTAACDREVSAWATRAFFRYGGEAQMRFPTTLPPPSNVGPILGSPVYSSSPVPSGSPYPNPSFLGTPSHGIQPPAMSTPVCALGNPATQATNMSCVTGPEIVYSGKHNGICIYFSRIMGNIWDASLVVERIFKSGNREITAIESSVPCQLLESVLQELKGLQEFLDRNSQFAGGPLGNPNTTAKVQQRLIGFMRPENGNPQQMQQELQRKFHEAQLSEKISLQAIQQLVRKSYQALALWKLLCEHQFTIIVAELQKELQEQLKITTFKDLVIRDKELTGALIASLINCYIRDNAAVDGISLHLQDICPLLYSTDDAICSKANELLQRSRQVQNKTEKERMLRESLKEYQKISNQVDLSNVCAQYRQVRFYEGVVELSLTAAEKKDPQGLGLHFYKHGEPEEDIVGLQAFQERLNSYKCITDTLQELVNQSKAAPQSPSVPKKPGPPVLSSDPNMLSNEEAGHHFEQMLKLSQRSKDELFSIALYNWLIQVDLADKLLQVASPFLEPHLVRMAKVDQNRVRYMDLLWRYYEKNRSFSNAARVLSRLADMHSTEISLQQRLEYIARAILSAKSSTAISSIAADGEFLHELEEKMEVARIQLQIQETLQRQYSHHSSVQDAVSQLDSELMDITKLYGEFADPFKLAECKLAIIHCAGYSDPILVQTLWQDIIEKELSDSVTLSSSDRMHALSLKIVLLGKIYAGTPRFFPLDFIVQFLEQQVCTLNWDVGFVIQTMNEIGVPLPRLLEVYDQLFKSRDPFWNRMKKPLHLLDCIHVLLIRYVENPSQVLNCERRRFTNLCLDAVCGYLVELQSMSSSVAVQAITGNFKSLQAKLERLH
UniProt Q01968: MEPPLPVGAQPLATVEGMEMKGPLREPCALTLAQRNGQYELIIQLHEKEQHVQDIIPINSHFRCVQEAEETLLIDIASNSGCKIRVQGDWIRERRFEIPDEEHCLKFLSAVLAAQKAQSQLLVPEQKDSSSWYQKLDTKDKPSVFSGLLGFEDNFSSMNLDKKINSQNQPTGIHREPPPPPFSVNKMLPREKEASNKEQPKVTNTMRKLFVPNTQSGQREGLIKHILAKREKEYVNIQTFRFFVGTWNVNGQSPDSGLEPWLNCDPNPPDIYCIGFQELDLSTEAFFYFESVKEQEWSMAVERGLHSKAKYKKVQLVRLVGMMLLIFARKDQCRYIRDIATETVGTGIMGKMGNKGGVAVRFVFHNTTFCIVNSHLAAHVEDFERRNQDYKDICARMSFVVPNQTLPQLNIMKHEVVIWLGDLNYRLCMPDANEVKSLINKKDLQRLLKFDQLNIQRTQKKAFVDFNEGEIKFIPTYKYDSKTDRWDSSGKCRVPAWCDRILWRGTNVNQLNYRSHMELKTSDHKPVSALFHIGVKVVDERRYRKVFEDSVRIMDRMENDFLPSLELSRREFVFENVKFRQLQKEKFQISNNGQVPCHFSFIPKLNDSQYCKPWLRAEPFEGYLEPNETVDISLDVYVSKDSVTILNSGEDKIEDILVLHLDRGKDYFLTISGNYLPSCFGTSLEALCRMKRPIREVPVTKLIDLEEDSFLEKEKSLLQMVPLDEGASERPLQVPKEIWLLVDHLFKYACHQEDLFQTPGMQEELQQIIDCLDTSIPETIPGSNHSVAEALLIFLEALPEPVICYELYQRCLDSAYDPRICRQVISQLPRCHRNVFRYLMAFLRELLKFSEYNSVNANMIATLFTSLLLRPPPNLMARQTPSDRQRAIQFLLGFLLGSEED

Compound: Cc1cc(ccc1-c1ccccc1)C(=O)N1CCCN(CC1)C(=O)CCl [compound 10]
Assay: probe-labelled cysteine peptide fold change vs DMSO (competition) (log2 fold change); higher = less target engagement (more negative = stronger competition)
Conditions: THP-1, incubation time: 4 h
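Note: competitive profiling in live THP-1 cells: cysteine peptides tagged with an iodoacetamide desthiobiotin (IA-DTB) probe, intensity after compound treatment relative to DMSO-treated cells.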

Row | Target | probe-labelled cysteine peptide fold change (10 µM) | probe-labelled cysteine peptide fold change (50 µM)
1 | OAS3_Q9Y6K5_956_HWYQQCTK (UniProt Q9Y6K5) | -0.611 | 0.0985
2 | NUP43_Q8NFH3_365_SLSVNTLDVLGPCLVCGTDAEAIYVTR (UniProt Q8NFH3) | 0.403 | 0.827
3 | NXF1_Q9UBU9_143_CSVPFTPIEFHYENTR (UniProt Q9UBU9) | -0.0336 | -0.108
4 | OGA_O60502_863_SMMACLLSSLK (UniProt O60502) | 4.11e-05 | -0.288
5 | OAS3_Q9Y6K5_350_AGCSGLGHPIQLDPNQK (UniProt Q9Y6K5) | -0.129 | -0.378
6 | OGDH_Q02218_487_VVNAPIFHVNSDDPEAVMYVCK (UniProt Q02218) | -0.0133 | -0.108
7 | NUP37_Q8NFH4_149_EGQEIASVSDDHTCR (UniProt Q8NFH4) | 0.189 | 0.155
8 | NUDCD1_Q96RS6_67_LRDDQYTLEHMHAFGMYNYLHCDSWYQDSVYYIDTLGR (UniProt Q96RS6) | 0.189 | 0.42
9 | NUDT14_O95848_12_CAASPYLRPLTLHYR (UniProt O95848) | -0.114 | 0.105
10 | NUP88_Q99567_447+454_CFVEHILCTK (UniProt Q99567) | -0.105 | -0.105
11 | NUP188_Q5SRE5_1283_DGVCVLGLHLAK (UniProt Q5SRE5) | -0.0739 | -0.11
12 | NUP93_Q8N1F7_522_SSGQSAQLLSHEPGDPPCLR (UniProt Q8N1F7) | -0.509 | -0.756
13 | OGFOD3_Q6PK18_90_FIEVPCSEDYDSHRR (UniProt Q6PK18) | -0.581 | -0.0624
14 | NUP153_P49790_731_FKPVIGTWDCDTCLVQNKPEAIK (UniProt P49790) | 0.119 | -0.0571
15 | NUP205_Q92621_530_MLQGLANGPQCAHYCFSLLK (UniProt Q92621) | 0.0195 | 0.207
16 | NUP85_Q9BW27_265_WQHWHEECER (UniProt Q9BW27) | 0.259 | 0.384
17 | NUP98_P52948_1234_HSTVHVDELCPLIVPNLGVAVIHDYADWVK (UniProt P52948) | -0.0516 | 0.146
18 | NUBP2_Q9Y5Y2_54_KVGILDVDLCGPSIPR (UniProt Q9Y5Y2) | -0.0687 | -0.0478

Row | Target | probe-labelled cysteine peptide fold change (10 µM) | probe-labelled cysteine peptide fold change (50 µM)
19 | NUDT14_O95848_127_EAWEECGYHLAPSDLRR (UniProt O95848) | -0.121 | -0.154
20 | NUP98_P52948_1347_ISEACSLAQQSGDHR (UniProt P52948) | 0.0785 | 0.228
21 | NUP160_Q12769_1042_QLVVVLCER (UniProt Q12769) | 0.247 | 0.194
22 | NUMB_P49757_58_GMHICEDAVK (UniProt P49757) | -0.0394 | 0.0727
23 | OAT_P04181_150_VLPMNTGVEAGETACK (UniProt P04181) | 0.0523 | 0.0515
24 | NUBP2_Q9Y5Y2_269_ILDATPACLP (UniProt Q9Y5Y2) | -0.1 | -0.133
25 | NUDT18_Q6ZVK8_241_LLQECLTLHHLVVEIK (UniProt Q6ZVK8) | -0.00533 | 0.35
26 | NXF1_Q9UBU9_373_LDGHELPPPIAFDVEAPTTLPPCK (UniProt Q9UBU9) | -0.00163 | 0.112
27 | NUP133_Q8WUM0_530_AAFLQYCR (UniProt Q8WUM0) | 0.0364 | -0.0191
28 | NUBP2_Q9Y5Y2_72_AVHQCDR (UniProt Q9Y5Y2) | 0.0354 | -0.734
29 | NUP210_Q8TEM1_746_FVCAPPSR (UniProt Q8TEM1) | 0.133 | 0.305
30 | NUDCD1_Q96RS6_111_LPTDLTACDNR (UniProt Q96RS6) | 0.129 | 0.0177
31 | NUP155_O75694_548+551_LHQEDQACATCLILACSTAACDR (UniProt O75694) | 0.123 | -0.0807
32 | NUP93_Q8N1F7_397_CDVTDNQSEVADK (UniProt Q8N1F7) | -0.073 | 0.331
33 | OCRL_Q01968_104_RFEIPDEEHCLK (UniProt Q01968) | 0.0107 | 0.0227
34 | NUP214_P35658_298_HPEIFVNFMEPCYGSCTER (UniProt P35658) | 0.163 | 0.251
35 | NUP85_Q9BW27_112_ACMEEMHQVAIAAK (UniProt Q9BW27) | 0.143 | 0.0463

As a short view, some entries already given:
Row | Target | probe-labelled cysteine peptide fold change (10 µM) | probe-labelled cysteine peptide fold change (50 µM)
24 | NUBP2_Q9Y5Y2_269_ILDATPACLP (UniProt Q9Y5Y2) | -0.1 | -0.133
25 | NUDT18_Q6ZVK8_241_LLQECLTLHHLVVEIK (UniProt Q6ZVK8) | -0.00533 | 0.35
26 | NXF1_Q9UBU9_373_LDGHELPPPIAFDVEAPTTLPPCK (UniProt Q9UBU9) | -0.00163 | 0.112
27 | NUP133_Q8WUM0_530_AAFLQYCR (UniProt Q8WUM0) | 0.0364 | -0.0191
28 | NUBP2_Q9Y5Y2_72_AVHQCDR (UniProt Q9Y5Y2) | 0.0354 | -0.734
29 | NUP210_Q8TEM1_746_FVCAPPSR (UniProt Q8TEM1) | 0.133 | 0.305
30 | NUDCD1_Q96RS6_111_LPTDLTACDNR (UniProt Q96RS6) | 0.129 | 0.0177
31 | NUP155_O75694_548+551_LHQEDQACATCLILACSTAACDR (UniProt O75694) | 0.123 | -0.0807
32 | NUP93_Q8N1F7_397_CDVTDNQSEVADK (UniProt Q8N1F7) | -0.073 | 0.331
33 | OCRL_Q01968_104_RFEIPDEEHCLK (UniProt Q01968) | 0.0107 | 0.0227
